Data from US9067914B1, “Tropomyosin-related kinase (TRK) inhibitors” (Genzyme Corporation, priority 2013, dated 2015).
The match of structure and compound is tentative.

By UniProt entry, the sequences of proteins in these tests, tags left out. Residues count along the entry.
UniProt Q16620, 32-822 limits assumed: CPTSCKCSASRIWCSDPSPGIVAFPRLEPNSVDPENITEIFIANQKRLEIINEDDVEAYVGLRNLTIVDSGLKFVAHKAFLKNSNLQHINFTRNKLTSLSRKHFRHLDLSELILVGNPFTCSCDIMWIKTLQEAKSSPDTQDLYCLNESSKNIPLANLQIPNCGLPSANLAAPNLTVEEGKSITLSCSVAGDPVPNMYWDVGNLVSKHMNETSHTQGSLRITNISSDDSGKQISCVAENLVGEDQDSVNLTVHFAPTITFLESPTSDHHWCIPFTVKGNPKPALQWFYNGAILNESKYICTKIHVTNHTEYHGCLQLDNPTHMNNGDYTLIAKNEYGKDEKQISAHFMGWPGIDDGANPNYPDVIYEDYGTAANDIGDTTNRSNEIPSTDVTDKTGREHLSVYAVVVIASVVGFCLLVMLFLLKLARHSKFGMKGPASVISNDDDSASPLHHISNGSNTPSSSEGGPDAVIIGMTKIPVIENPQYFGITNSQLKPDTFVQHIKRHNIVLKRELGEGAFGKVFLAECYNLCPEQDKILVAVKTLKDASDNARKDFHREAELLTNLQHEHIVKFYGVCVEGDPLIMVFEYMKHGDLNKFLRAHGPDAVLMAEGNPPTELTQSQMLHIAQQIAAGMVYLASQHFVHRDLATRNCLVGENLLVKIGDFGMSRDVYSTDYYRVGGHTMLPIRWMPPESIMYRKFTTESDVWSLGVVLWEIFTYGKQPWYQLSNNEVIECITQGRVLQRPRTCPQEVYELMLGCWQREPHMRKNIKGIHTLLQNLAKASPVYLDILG
UniProt P04629, 33-796 limits assumed: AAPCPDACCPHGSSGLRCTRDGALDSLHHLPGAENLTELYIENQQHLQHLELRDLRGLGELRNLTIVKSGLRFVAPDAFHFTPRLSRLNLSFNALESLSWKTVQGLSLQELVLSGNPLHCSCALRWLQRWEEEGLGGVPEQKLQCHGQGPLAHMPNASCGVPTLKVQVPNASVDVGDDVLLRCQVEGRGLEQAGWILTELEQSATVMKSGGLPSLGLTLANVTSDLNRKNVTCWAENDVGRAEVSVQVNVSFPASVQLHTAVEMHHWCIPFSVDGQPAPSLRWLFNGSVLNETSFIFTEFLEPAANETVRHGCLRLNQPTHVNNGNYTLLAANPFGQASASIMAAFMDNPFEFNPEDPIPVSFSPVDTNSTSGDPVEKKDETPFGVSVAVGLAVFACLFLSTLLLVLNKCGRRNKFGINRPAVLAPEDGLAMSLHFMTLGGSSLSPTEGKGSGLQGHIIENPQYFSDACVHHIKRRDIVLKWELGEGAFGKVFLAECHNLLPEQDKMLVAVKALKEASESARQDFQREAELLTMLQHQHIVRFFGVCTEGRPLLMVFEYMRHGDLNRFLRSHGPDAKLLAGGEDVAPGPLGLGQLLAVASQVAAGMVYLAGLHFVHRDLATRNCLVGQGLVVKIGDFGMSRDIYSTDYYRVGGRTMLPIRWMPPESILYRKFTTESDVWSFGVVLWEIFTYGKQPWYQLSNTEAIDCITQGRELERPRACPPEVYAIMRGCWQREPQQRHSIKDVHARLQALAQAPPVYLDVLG

Legend:
TrkB = TrkB (Homo sapiens (Human), UniProt Q16620); test: TrkB activity, off-chip mobility shift assay (LabChip 3000); type: biochemical; conditions: read-out: IC50 TrkB; 70 μM ATP (ATP Km); n/d = none detected
TrkA = TrkA (Homo sapiens (Human), UniProt P04629); test: TrkA activity, off-chip mobility shift assay (LabChip 3000); type: biochemical; conditions: read-out: IC50 TrkA; 55 μM ATP (ATP Km); n/d = none detected

COc1ccc(COc2ccc(Cn3cnc4cc(-c5cncnc5)ccc43)cc2OC)cn1
IC50 (TrkB): 252 nM
IC50 (TrkA): 836 nM
